Measurements reported in PubChem BioAssay AID1259405 (NCATS, 2018).

- Test: 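Silenced genes that increase secreted GFP made by CHO cells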 (primary screen)
- Cells: Chinese hamster CHO-K1 ovary cells with stable secreted eGFP expression
- Knock-down reagent: single siRNA against mouse genes, 0.8 pmol siRNA per well (2 µl of 400 nM stock)
- Duration: 3 days
- Measurement: 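Percent of the per-plate non-targeting control median for intracellular GFP per well by laser scanning cytometry and for cell viability by ATP luminescence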
- Reading the numbers: GFP, % of control: higher = more GFP per well, higher productivity; viability (ATP), % of control: higher = more viable cells (more ATP)
- Hit rule: 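Called active when intracellular GFP, relative to negative control, is at or above 120%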
In all, the deposit lists about 50,000 reagents; this is an unselected part. About 4,000 of them (8%) count as active. 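Mouse siRNA library applied to hamster cells; one well for each siRNA.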 Reagents against one gene are numbered here.

Silencing of Elp3 #1 resulted in: GFP, % of control 106; viability (ATP), % of control 105; inactive.
After knock-down of Elp3 #2 the results were GFP, % of control 85.7; viability (ATP), % of control 147; inactive.
Elp3 #3 gave GFP, % of control 60.3; viability (ATP), % of control 102; inactive.
With knock-down of Npy5r #1, the record shows GFP, % of control 44; viability (ATP), % of control 58.5; inactive.
For Npy5r #2, the values are GFP, % of control 56.5; viability (ATP), % of control 49.7; inactive.
Knock-down of Npy5r #3 gave: GFP, % of control 79.5; viability (ATP), % of control 84.1; inactive.
Depletion of Fndc9 #1 gave: GFP, % of control 89.8; viability (ATP), % of control 68.5; inactive.
For Fndc9 #2, the entry reads GFP, % of control 79.5; viability (ATP), % of control 116; inactive.
With knock-down of Fndc9 #3 the results were GFP, % of control 149; viability (ATP), % of control 152; active.
After knock-down of Il19 #1, the screen gave GFP, % of control 47.8; viability (ATP), % of control 48.1; inactive.
Against Il19 #2, the values are GFP, % of control 81.1; viability (ATP), % of control 87.7; inactive.
Against Il19 #3, the values are GFP, % of control 47.8; viability (ATP), % of control 75.3; inactive.
Unc5a #1 showed GFP, % of control 55.7; viability (ATP), % of control 56.8; inactive.
Unc5a #2 showed GFP, % of control 92.4; viability (ATP), % of control 47.7; inactive.
Unc5a #3 gave GFP, % of control 67; viability (ATP), % of control 126; inactive.
Or7g31 #1 showed GFP, % of control 79.9; viability (ATP), % of control 75.5; inactive.
Or7g31 #2 scored GFP, % of control 62.6; viability (ATP), % of control 37.7; inactive.
For Or7g31 #3 the deposit lists GFP, % of control 52.2; viability (ATP), % of control 47.7; inactive.
Trmt10b #1 showed GFP, % of control 59.6; viability (ATP), % of control 83.6; inactive.
With knock-down of Trmt10b #2 the results were GFP, % of control 101; viability (ATP), % of control 113; inactive.
Against Or2bd2 #1, the values are GFP, % of control 34.4; viability (ATP), % of control 45.2; inactive.
Knock-down of Or2bd2 #2 came out at: GFP, % of control 101; viability (ATP), % of control 77.9; inactive.
With knock-down of Or2bd2 #3, the screen gave GFP, % of control 57; viability (ATP), % of control 94.9; inactive.
Knock-down of Taar7a #1 gave: GFP, % of control 86.4; viability (ATP), % of control 87.5; inactive.
For Taar7a #2, the values are GFP, % of control 78.1; viability (ATP), % of control 99.1; inactive.
Silencing of Taar7a #3 came out at: GFP, % of control 81.2; viability (ATP), % of control 58.2; inactive.
Knock-down of Idh2 #1 resulted in: GFP, % of control 57.7; viability (ATP), % of control 49.1; inactive.
After knock-down of Idh2 #2, the record shows GFP, % of control 70.9; viability (ATP), % of control 95; inactive.
For Idh2 #3 the deposit lists GFP, % of control 93.7; viability (ATP), % of control 99.3; inactive.
Xylt1 #1 scored GFP, % of control 106; viability (ATP), % of control 78; inactive.
Against Xylt1 #2, the values are GFP, % of control 63.8; viability (ATP), % of control 78.3; inactive.
For Xylt1 #3, the values are GFP, % of control 117; viability (ATP), % of control 110; inactive.
1700088E04Rik #1 showed GFP, % of control 83.3; viability (ATP), % of control 84.4; inactive.
With knock-down of 1700088E04Rik #2, the screen gave GFP, % of control 29.2; viability (ATP), % of control 35.7; inactive.
For 1700088E04Rik #3, the entry reads GFP, % of control 51.6; viability (ATP), % of control 50.2; inactive.

Targets above whose gene name starts with T or t:
Trmt10b #1 — GFP, % of control: 59.6; viability (ATP), % of control: 83.6; call: inactive
Trmt10b #2 — GFP, % of control: 101; viability (ATP), % of control: 113; call: inactive
Taar7a #1 — GFP, % of control: 86.4; viability (ATP), % of control: 87.5; call: inactive
Taar7a #2 — GFP, % of control: 78.1; viability (ATP), % of control: 99.1; call: inactive
Taar7a #3 — GFP, % of control: 81.2; viability (ATP), % of control: 58.2; call: inactive

Next results follow.
Fcrl5 #1 gave GFP, % of control 76; viability (ATP), % of control 67; inactive.
Fcrl5 #2 scored GFP, % of control 79.5; viability (ATP), % of control 90.5; inactive.
With knock-down of Fcrl5 #3, the screen gave GFP, % of control 74.3; viability (ATP), % of control 76.4; inactive.
For Pcf11 #1 the deposit lists GFP, % of control 88.9; viability (ATP), % of control 74.9; inactive.
After knock-down of Pcf11 #2 the results were GFP, % of control 118; viability (ATP), % of control 87.4; inactive.
For Pcf11 #3, the entry reads GFP, % of control 83.7; viability (ATP), % of control 74.1; inactive.
For Meg3 #1 the deposit lists GFP, % of control 45.1; viability (ATP), % of control 54.8; inactive.
Depletion of Meg3 #2 gave: GFP, % of control 66.5; viability (ATP), % of control 82.8; inactive.
With knock-down of Meg3 #3, the record shows GFP, % of control 119; viability (ATP), % of control 62.9; inactive.
With knock-down of Lcn3 #1, the screen gave GFP, % of control 45.7; viability (ATP), % of control 38.8; inactive.
After knock-down of Lcn3 #2, the record shows GFP, % of control 66.5; viability (ATP), % of control 53.3; inactive.
Against Lcn3 #3, the entry reads GFP, % of control 128; viability (ATP), % of control 83.9; active.
Tle3 #1 scored GFP, % of control 86.1; viability (ATP), % of control 80.1; inactive.
After knock-down of Tle3 #2, the screen gave GFP, % of control 111; viability (ATP), % of control 86.6; inactive.
For Tle3 #3 the deposit lists GFP, % of control 78.2; viability (ATP), % of control 85.9; inactive.
For Cd300lg #1, the values are GFP, % of control 42.4; viability (ATP), % of control 33.5; inactive.
Knock-down of Cd300lg #2 resulted in: GFP, % of control 79.9; viability (ATP), % of control 90.8; inactive.
With knock-down of Cd300lg #3 the results were GFP, % of control 77.1; viability (ATP), % of control 84.3; inactive.
